The record followed here is the supplement of paper PMC7125110.

± gives the standard error. Many entries were measured with a wide error.

The labels stand for the following.
B1: glmS ribozyme (parent)
chain: AUAAAAGCGCCAGAACUACAGAAAUGUAGUUGACGAGGAGGAGGUUUAUCGAAUUUUCGGCGGAUGCCUCCAAA

Variants of B1 are the subject of the first series. Kind of series: self-cleavage kobs at 160 uM GlcN6P; higher = faster cleavage; RNA array. As to conditions: with glucosamine-6-phosphate. The gist of the method: (§1)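 Tiles of sequenced MiSeq chips were imaged over ~14 h at 37 °C. On them, barcoded ribozyme variants had been transcribed in situ by E. coli RNA polymerase and were tracked via a hybridised Cy3 probe while glucosamine-6-phosphate (40 μM to 10 mM) in HEPES/KCl/Mg(OAc)2 buffer flowed in. Per-tile medians, normalised to baseline and to non-cleaving reference variants, were fit to one- or two-exponential decays for kobs, and weighted Michaelis–Menten fits gave kcat and KM.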
For C50G C68G, the “self-cleavage kobs at 160 uM GlcN6P” value was found to be 0.00095 ± 0.00049 s⁻¹.
On to U46A U69G, for which the “self-cleavage kobs at 160 uM GlcN6P” value turned out to be 2.9e-05 ± 1.5e-05 s⁻¹.
Still for that read-out and setting: to G32A C70A belongs 2.7e-05 ± 1.5e-05 s⁻¹.
Still for that read-out and setting: for G29U C58U C68U the value was 3.51e-05 ± 2.3e-05 s⁻¹; for A48U C67U, 1.9e-05 ± 1.1e-05 s⁻¹.
On the same count and under the same terms, for G13A A36G U69G the value was 0.000112 ± 5.7e-05 s⁻¹.
Take U45C C71A: the “self-cleavage kobs at 160 uM GlcN6P” value turned out to be 4.2e-05 ± 3.5e-05 s⁻¹.
Still for that read-out and setting: to U30G U46A G66C belongs 2.07e-05 ± 1.9e-05 s⁻¹; to A42G G43A C67U C68U, 3.25e-05 ± 2.9e-05 s⁻¹; to C16G U69A, 1.87e-05 ± 1.7e-05 s⁻¹.
Same read-out and setting: for G38U A39G C50G the value was 5.57e-05 ± 2.9e-05 s⁻¹.
Regarding G13C, the “self-cleavage kobs at 160 uM GlcN6P” value was < 1e-05 s⁻¹.
For the variant C11A U31A, the “self-cleavage kobs at 160 uM GlcN6P” value was 1.98e-05 ± 1.7e-05 s⁻¹.
On the same count and under the same terms, for U65C U69G the value was 5.05e-05 ± 2.8e-05 s⁻¹; for G13C A15G U45A, 2.11e-05 ± 1.9e-05 s⁻¹; for A42U C70U, 1.8e-05 ± 1.2e-05 s⁻¹.
As for G32A A53G U56G, the “self-cleavage kobs at 160 uM GlcN6P” value turned out to be 1.96e-05 ± 1.9e-05 s⁻¹.
Turning to C11A U69A, the “self-cleavage kobs at 160 uM GlcN6P” value worked out at 4.25e-05 ± 2.8e-05 s⁻¹.
The same measure, in the same setting: for U49G U69G the value was 3.99e-05 ± 2.8e-05 s⁻¹; for U30C C71G, 2.73e-05 ± 1.8e-05 s⁻¹; for U57G, < 1e-05 s⁻¹.
Still for that read-out and setting: for G32U C70A the value was 9.5e-05 ± 5.9e-05 s⁻¹; for G21A G44U, 2.8e-05 ± 1.6e-05 s⁻¹.
The same measure, in the same setting: to U56G C58A belongs 1.99e-05 ± 1.3e-05 s⁻¹; to A42U U54G, 3.39e-05 ± 2e-05 s⁻¹; to G51A U69A, 2.04e-05 ± 2e-05 s⁻¹.
With A12U C16U A33C, the “self-cleavage kobs at 160 uM GlcN6P” value worked out at 2.25e-05 ± 1.1e-05 s⁻¹.
For U30G U65A, the “self-cleavage kobs at 160 uM GlcN6P” value worked out at 4.36e-05 ± 2.2e-05 s⁻¹.
Still for that read-out and setting: to G37C C50A C58A U69A belongs 5.99e-05 ± 3.2e-05 s⁻¹; to A14G A52U, 2.9e-05 ± 1.6e-05 s⁻¹.
The same measure, in the same setting: for G13A U47A the value was 3.28e-05 ± 1.7e-05 s⁻¹.
Still for that read-out and setting: to G32U U47G belongs 2.13e-05 ± 1.8e-05 s⁻¹; to G32C U69G, 0.00034 ± 0.00022 s⁻¹.
As for C61G C70G, the “self-cleavage kobs at 160 uM GlcN6P” value is 1.85e-05 ± 1.6e-05 s⁻¹.
The same measure, in the same setting: for G32U U69C the value was 2.73e-05 ± 1.6e-05 s⁻¹; for C58A C67U C71A, 2.91e-05 ± 2.1e-05 s⁻¹; for G40C C70A, 3.08e-05 ± 1.8e-05 s⁻¹.
With A6U C50A U65A U69C, the “self-cleavage kobs at 160 uM GlcN6P” value worked out at 2.87e-05 ± 2e-05 s⁻¹.
In the case of U65G U69C C71U, the “self-cleavage kobs at 160 uM GlcN6P” value amounted to 2.82e-05 ± 1.9e-05 s⁻¹.
Same read-out and setting: to G13A A39U belongs 1.93e-05 ± 1.8e-05 s⁻¹.
In the case of G29C C58A, the “self-cleavage kobs at 160 uM GlcN6P” value came to 2.02e-05 ± 1.8e-05 s⁻¹.
The same measure, in the same setting: for U46G G66U C67U the value was 2.54e-05 ± 2.5e-05 s⁻¹; for G13C G32U, 3.28e-05 ± 1.7e-05 s⁻¹.

In another series the parent is B1. The experiment in a line: self-cleavage kobs at 2500 uM GlcN6P; higher = faster cleavage; RNA array. As to conditions: with glucosamine-6-phosphate. The gist of the method:
as §1
For the variant A14U U49A G51U A64U C68G, the “self-cleavage kobs at 2500 uM GlcN6P” value is 3.45e-05 ± 3.3e-05 s⁻¹.
As to A12G G37A U69G, the “self-cleavage kobs at 2500 uM GlcN6P” value is 2.39e-05 ± 2.3e-05 s⁻¹.
Regarding G13C U55G C58G, the “self-cleavage kobs at 2500 uM GlcN6P” value was 4.13e-05 ± 2.3e-05 s⁻¹.
Turning to A6U G29U, the “self-cleavage kobs at 2500 uM GlcN6P” value worked out at 1.82e-05 ± 1.2e-05 s⁻¹.
Still for that read-out and setting: for A15C C70G C71A the value was 4.64e-05 ± 2.7e-05 s⁻¹; for G7U A48U C50G U54G, 4.99e-05 ± 3.5e-05 s⁻¹.
Still for that read-out and setting: for G38U A39G C50G the value was 3.75e-05 ± 3e-05 s⁻¹.
Consider A6C U47G, for which the “self-cleavage kobs at 2500 uM GlcN6P” value was found to be 2.07e-05 ± 1.7e-05 s⁻¹.
On the same count and under the same terms, for A6G A14U U47A A52C C68G the value was 4.76e-05 ± 3.6e-05 s⁻¹; for A14C A36G C70G, 3.48e-05 ± 3e-05 s⁻¹; for G62C C67U U69A, 2.9e-05 ± 2.4e-05 s⁻¹.
Same read-out and setting: to A12U A14U G32U belongs 2.93e-05 ± 2.6e-05 s⁻¹.
Same read-out and setting: for A14C C16A C70A the value was 4.63e-05 ± 2.7e-05 s⁻¹; for C11A C19A, 4.89e-05 ± 2.9e-05 s⁻¹; for G13C G29C G62U, 3.97e-05 ± 3.5e-05 s⁻¹.
C10A G59U: the “self-cleavage kobs at 2500 uM GlcN6P” value turned out to be 1.55e-05 ± 1.3e-05 s⁻¹.
The same measure, in the same setting: to C11G C50U U57A G60A C67U belongs 3.71e-05 ± 2.3e-05 s⁻¹; to C61U U69G, 1.93e-05 ± 1.4e-05 s⁻¹; to A6G A36C C50G, 3.21e-05 ± 2.3e-05 s⁻¹.
The same measure, in the same setting: to A14U C50A U54G G62A C68U belongs 3.18e-05 ± 1.8e-05 s⁻¹.
On the same count and under the same terms, to A14U A15U G29A belongs 2.46e-05 ± 2.1e-05 s⁻¹.
Consider A6U U31C U54A, for which the “self-cleavage kobs at 2500 uM GlcN6P” value is 3.32e-05 ± 2.1e-05 s⁻¹.
Take C10U U69C: the “self-cleavage kobs at 2500 uM GlcN6P” value was found to be 2.39e-05 ± 1.4e-05 s⁻¹.
With C10U C50U C68G, the “self-cleavage kobs at 2500 uM GlcN6P” value was determined as 2.47e-05 ± 2e-05 s⁻¹.
On the same count and under the same terms, to G9U C34G C58G C68U belongs 4.45e-05 ± 3.7e-05 s⁻¹; to C10G A52G C68G C71U, 2.65e-05 ± 2e-05 s⁻¹; to A15C C16G G37A C71U, 1.97e-05 ± 1.3e-05 s⁻¹.
The same measure, in the same setting: for C10U C70G C71G the value was 4.33e-05 ± 2.3e-05 s⁻¹.
For the variant A14U G32C C50G G59U, the “self-cleavage kobs at 2500 uM GlcN6P” value was found to be 8.89e-05 ± 5.5e-05 s⁻¹.
Same read-out and setting: to C58A C67U C71A belongs 3.91e-05 ± 3.1e-05 s⁻¹; to G7U C70G, 0.00029 ± 0.00021 s⁻¹; to A14C G29C U30A C58G, 5.07e-05 ± 3.7e-05 s⁻¹.
Consider G13C A52U G59A C68G, for which the “self-cleavage kobs at 2500 uM GlcN6P” value was 3.42e-05 ± 2.4e-05 s⁻¹.
On the same count and under the same terms, to A14G G29U A52C C68A belongs 3.23e-05 ± 2e-05 s⁻¹.
Regarding A12G A39G C70G, the “self-cleavage kobs at 2500 uM GlcN6P” value is 5.25e-05 ± 2.8e-05 s⁻¹.

Another series covers variants of B1. The experiment in a line: self-cleavage kobs at 10000 uM GlcN6P; higher = faster cleavage; RNA array. As to conditions: with glucosamine-6-phosphate. A digest of the protocol:
as §1
Regarding G29U C58U C68U, the “self-cleavage kobs at 10000 uM GlcN6P” value came out at 3.68e-05 ± 2.3e-05 s⁻¹.
Take A15C C70G C71A: the “self-cleavage kobs at 10000 uM GlcN6P” value came out at 1.71e-05 ± 1.5e-05 s⁻¹.
Still for that read-out and setting: to G38U A39G C50G belongs 2.95e-05 ± 2.2e-05 s⁻¹.
Still for that read-out and setting: to C11A U69A belongs 2.16e-05 ± 1.9e-05 s⁻¹; to G7U C70G, 0.000759 ± 0.00051 s⁻¹.

Another series covers variants of B1. Kind of series: self-cleavage kobs at 640 uM GlcN6P; higher = faster cleavage; RNA array. As to conditions: with glucosamine-6-phosphate. The gist of the method:
as §1
For U65C C71G, the “self-cleavage kobs at 640 uM GlcN6P” value amounted to 2.09e-05 ± 1.5e-05 s⁻¹.
Still for that read-out and setting: to U65C U69G belongs 3.75e-05 ± 1.9e-05 s⁻¹; to G62C C67U U69A, 2.86e-05 ± 2.2e-05 s⁻¹; to C61U U69G, 1.91e-05 ± 1.6e-05 s⁻¹.
Take U65G C68A: the “self-cleavage kobs at 640 uM GlcN6P” value stood at 3.33e-05 ± 2e-05 s⁻¹.
Take G59U U65A C67A: the “self-cleavage kobs at 640 uM GlcN6P” value turned out to be 2.51e-05 ± 1.7e-05 s⁻¹.
The same measure, in the same setting: to C61G C70G belongs 2.15e-05 ± 1.4e-05 s⁻¹.
